In patent publication US20250376501A1:
Results are given in words; binding and its absence hold for the method and conditions named. Some entries that bind do so weakly or less than the wild type. For part of these data: Sequences can lack the tags named with a protein. Blank lines part the entries; values can stand above or below the binder they belong to.

Chains of the proteins cited; added tags and fusions are not shown. Lines headed by an entry give the natural chain unless they say otherwise; changes in a name come on top.
UniProt Q969D9: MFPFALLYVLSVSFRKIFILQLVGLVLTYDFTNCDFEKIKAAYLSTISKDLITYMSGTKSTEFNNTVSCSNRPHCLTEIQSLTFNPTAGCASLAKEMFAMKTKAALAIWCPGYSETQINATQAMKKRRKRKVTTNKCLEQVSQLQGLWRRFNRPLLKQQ

How the values were obtained:
[1] = target: hTSLP recombinant protein (ACROBiosystems, Cat. No. TSP-H52Ha) (human) (UniProt Q969D9); assay: competitive ELISA, mouse IL-7Rα-his coated, hTSLP and hTSLPR-Fc added with titrated 3H10-his; blocked: hTSLP/hTSLPR-Fc complex binding to mouse IL-7Rα-his, anti-human Fc HRP
[2] = target: hTSLP recombinant protein (ACROBiosystems, Cat. No. TSP-H52Ha) (human) (UniProt Q969D9); assay: competitive ELISA, TSLPR-Fc coated, hTSLP and hIL-7Rα-mFc added with the titrated blocker; blocked: hIL-7Rα-mFc binding to hTSLP/TSLPR-Fc complex, anti-mouse Fc HRP
[3] = target: hTSLP-mFc recombinant protein (ACROBiosystems, Cat. No. TSP-H5255) (human) (UniProt Q969D9); assay: ELISA, hTSLP-mFc coated at 50 ng/well, anti-His HRP, OD450
[4] = target: hTSLP recombinant protein (ACROBiosystems, Cat. No. TSP-H52Ha) (human) (UniProt Q969D9); assay: phage display panning on coated hTSLP
[5] = target: wild-type hTSLP (human) (UniProt Q969D9); assay: Gator BLI, reference of the alanine scan

binding [1]: binds
binding [2]: binds
binding [3]: binds
B1: 3H10-his recombinant protein (designed binder, not shown: small tags and cut ends)
chain: GSHMDLGKKLLEAAWAGRDDEVRILMANGADVNAGDASGDTPLHLAAFSGHLEIVEVLLKHGADVNAEDLLGMTPLHLAAPFGHLEIVEVLLKHGADVNAAARNNGKTPLHLAAFVGHLEIVEVLLKNGADVNAQDKFGKTAFDISIDNGNEDLAEILQKLNG

binding [4]: binds
B2: 3H10 clone (designed binder)
chain: B1 chain

binding [5]: binds
B3: 3H10-biotin protein (designed binder)
chain: B1 chain
modifications: biotin (site not stated)

binding [4]: binds
B4: 1A1 mutant G7W1 (designed binder)
chain: GSDLGKKLLEAAWAGRDDEVRILMANGADVNAGDASGDTPLHLAAVVGHLEIVEVLLKHGADVNAEDLLGMTPLHLAAPFGHLEIVEVLLKHGADVNAAARNNGKTPLHLAAFVGHLEIVEVLLKNGADVNAQDKFGKTAFDISIDNGNEDLAEILQKLNG
